Values from PubChem BioAssay AID1671195 (Yale University, 2021)
The whole screen tested about 22,000 reagents; shown is a part drawn at random. In the full data, about 1,510 (6.9%) are marked active. 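Active includes knockdowns raising or lowering LDL uptake; positive z-scores mean more uptake, negative mean less.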 Entries without a mark were called inactive. The numbers tell different reagents against one gene apart.

Test: 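Genes whose knockdown alters LDL uptake in liver cancer cells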 (primary screen)
System: human Huh7 hepatoma cells
Reagent: siRNA pool against human genes, 18 nM
Duration: about 2 to 2.5 days of knockdown, then 8 h LDL uptake
Challenge: DiI-labelled LDL at 30 µg/ml for 8 h, in lipoprotein-deficient serum medium
Measurement: 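Fluorescent LDL signal imaged in cells, scaled to the plate median, robust z-score for each replicate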
Direction: robust z-score: higher = more LDL uptake after knockdown
Hit rule: 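Active when two or more replicates show a robust z-score above 2 or below -2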

gene,reagent no.,"robust z-score, replicate 1","robust z-score, replicate 2","robust z-score, replicate 3"
TRIM7,1,-0.239,-1.73,-1.09
CFAP52,1,1.46,1.06,0.729
ELSPBP1,1,-0.746,-0.938,-1.29
OR10H2,1,1.68,-0.25,1.66
FBLIM1,1,-1.34,-0.551,-1.79
KIF25,1,-0.814,-0.158,-1.06
CYP2A7,1,-1.19,-1.13,-1.34
UGT2B11,1,0.9,1.3,1.68
LOC389301 (retired record),1,-0.93,-0.773,-0.865
LOC441117 (retired record),1,0.234,-0.0878,0.199
OR5D14,1,-0.575,-0.998,-0.487
ARVP6125 (retired record),1,-0.779,-0.487,-0.523
TMEM41B,1,1.83,1.8,2.27
PROK1,1,4.93 (active),5.01,4.92
PRR16,1,-0.272,-1.54,-0.0389
TNS4,1,0.791,0.225,0.109
PACSIN1,1,-1.07,-0.622,-0.499
KCND3,1,-0.977,-0.603,-0.928
TNNI3K,1,1.57,1.43,2.66
TBP,1,-0.0789,-1.45,0.131
C6orf52,1,-0.178,-0.0428,0.175
CERK,1,-0.582,-0.19,-0.208
DUOX2,1,-0.572,-0.472,-0.362
SPMAP1,1,-1.63,-1.59,-1.77
SNHG32,1,-0.41,-1.04,-0.536
KIF11,1,0.217,0.072,0.626
OR8B12,1,1.07,0.896,1.23
CCDC88B,1,-0.209,-0.189,-0.232
NIPAL2,1,-0.357,-0.0175,-0.391
DNAJC9,1,-0.0302,0.477,0.153
SPIRE1,1,-1.06,-1.13,0.267
AFM,1,-0.61,-1.1,-1.03
GAB1,1,1.19,0.327,0.616
PLXNA3,1,0.162,-0.967,0.0465
EREG,1,-0.972,-0.497,-0.931
ADORA1,1,-0.552,-1.13,-1.09
EXOC3L1,1,-0.401,-0.313,-0.259
NUP50,1,-0.0119,0.0525,-1.35
PPM1N,1,1.68,1.12,1.84
HES7,1,-1.19,-1.81,-1.5
SIRAL1,1,2.07,1.54,1.44
ABCB10,1,-0.43,0.474,-0.621
TMEM140,1,-1.28,-0.886,-1.55
SLC25A25,1,0.903,0.611,0.965
TCN1,1,0.0196,0.332,0.45
ENOPH1,1,2.16 (active),1.53,2.41
PARN,1,-1.52,-1.37,-1.02
SNPH,1,-1.38,0.104,-0.933
RFPL4A,1,-1.59,-1.57,-1.35
USP20,1,0.399,0.211,0.882

Next part; the last 3 above are carried over.
gene,reagent no.,"robust z-score, replicate 1","robust z-score, replicate 2","robust z-score, replicate 3"
SNPH,1,-1.38,0.104,-0.933
RFPL4A,1,-1.59,-1.57,-1.35
USP20,1,0.399,0.211,0.882
CTSE,1,1.98 (active),1.74,2.51
BRCA1,1,-1.69,-1.53,-1.27
TMEM237,1,4.24 (active),4.37,4
PNRC2,1,3.56 (active),2.26,0.322
FAM182B,1,0.301,0.278,0.297
PRAMEF30P,1,-0.687,-0.793,0.336
BMP2,1,-1.5,-2,0.0177
LOC339902,1,0.928,0.35,0.63
EFHC2,1,0.422,0.00336,-0.267
MYL9,1,0.179,-0.0837,0.131
ZNF606,1,0.55,0.136,0.108
AP2B1,1,-1.22,-0.66,-0.925
TAF5,1,0.91,1.14,-0.309
TMEM126B,1,0.587,1.63,-0.674
OR9Q2,1,-1.32,-1.62,-1.63
CCL8,1,-0.612,-0.745,-0.372
SPPL2A,1,0.917,0.598,0.679
LOC387927 (retired record),1,-0.14,-0.393,-0.579
HMBOX1,1,-0.864,-1.46,-1.06
HMGXB4,1,0.708,-0.785,0.339
ASZ1,1,1.14,-0.405,0.626
MCTP1,1,-0.2,0.248,-0.136
PRELID3A,1,0.222,-0.31,1.1
TBCC,1,1.38,1.27,2.43
LOC402336 (retired record),1,0.975,-1.65,0.424
ARHGEF6,1,-0.629,-0.57,-0.934
GDAP2,1,0.201,1.22,0.258
RBM27,1,-0.231,0.0305,0.636
C19orf38,1,0.108,0.431,0.571
CENPX,1,4.86 (active),3.22,3
ADRA1D,1,-0.337,-1.01,-1.06
PDE8B,1,2.49,1.35,1.2
ETNK1,1,0.795,1.42,1.31
LOC388526 (retired record),1,-1.77,-1.41,-1.38
LDLR,1,-2.85 (active),,
LDLR,2,-2.96 (active),-2.77,-2.94
LHFPL1,1,1.61,1.49,1.12
